Patent US5563128A, “Phosphonate derivatives of lipophilic amines” (Rhone-Poulenc Rorer Pharmaceuticals Inc., priority 1995, dated 1996)
pIC50: −log10 of the molar value. The name of at least one read-out is uncertain.

Target: T1, squalene synthase (Rattus norvegicus, UniProt Q02769)
T1 construct: Microsomes are prepared by centrifugation (100,000 g) and then resuspended in the assay buffer; from tissue; host or cells: liver microsomes of male Sprague-Dawley rats (animals from Taconic Farms, Germantown, N.Y.)
T1 sequence (Q02769 1-416): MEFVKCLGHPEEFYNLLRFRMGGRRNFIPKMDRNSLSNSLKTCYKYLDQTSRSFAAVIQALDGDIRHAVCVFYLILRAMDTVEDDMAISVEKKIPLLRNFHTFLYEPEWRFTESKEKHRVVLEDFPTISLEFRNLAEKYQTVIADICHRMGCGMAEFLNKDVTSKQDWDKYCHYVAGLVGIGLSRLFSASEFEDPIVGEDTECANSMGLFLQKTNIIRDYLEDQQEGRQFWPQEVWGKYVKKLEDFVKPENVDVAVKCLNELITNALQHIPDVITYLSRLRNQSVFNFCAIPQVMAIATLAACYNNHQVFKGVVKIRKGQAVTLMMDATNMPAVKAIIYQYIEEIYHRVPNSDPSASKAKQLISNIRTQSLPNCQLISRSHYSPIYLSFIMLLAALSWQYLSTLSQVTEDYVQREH
Experiment: Squalene Synthase Inhibition Assay (rat liver microsomes, [3H]FPP)
Assay type: biochemical, rat (male Sprague-Dawley)
Details: 50 mM, pH 7.4
Experimental: Squalene Synthase Inhibition Assay
I. Preparation of Assay Substances:
Test solutions are prepared fresh in 100% DMSO or dH2 O. Subsequent dilutions are made in the same solvent. Compounds are tested initially at 1 μM (final concentrations).
Potassium Phosphate (50 mM,) pH 7.4, and HEPES (4-(2-hydroxyethyl)-1-piperazineethanesulfonic acid, 50 mM) pH 7.4 stock buffers are prepared and stored at 4° C. until use.
C) Microsomal Enzyme Preparation:
Fresh livers from male Sprague-Dawley rats (Taconic Farms, Germantown, N.Y.) weighing 150-200 g are collected after exsanguination. All subsequent procedures are performed at 4° C. The liver is homogenized in the assay buffer (50 mM, pH 7.4). Cellular fractions are separated as described by Popjak, G. in "Enzymes of sterol biosynthesis in liver and intermediates of sterol biosynthesis," Meth. Enzymol. […] Microsomes are prepared by centrifugation (100,000 g) and then resuspended in the assay buffer. […]
The procedure is a modification of those described by Popjack (ibid) and Poulter et al. in "Squalene synthase. […] After washing the lower aqueous phase is frozen and the petroleum ether phase is removed and counted with 10 ml Ready Safe liquid scintillation cocktail using a Beckman LS-9000 scintillation counter. […]
The difference in radioactivity in the presence and absence of the test compound is used to determine the level of inhibition. […]

O=P(O)(O)C(CCN1CCC=C(c2ccc(-c3nc4ccccc4o3)cc2)C1)P(=O)(O)O
pIC50 (HEPES buffer): 8.40
pIC50 (Phosphate buffer): 9.40
